Some entries share one result that the patent states for a list of compounds.
Biological target: T1, DPP-IV enzyme (Homo sapiens, UniProt P27487)
T1 construct: purchased Biovision (Milpitas, Calif., USA)
Assay: In vitro DPP-IV inhibition assay (Biovision kit, fluorescence)
Assay type: biochemical
Settings: read-out: enzymatic inhibition value / inhibitory activity (IC50)
Method: DPP-IV inhibition assay was conducted using a kit purchased from Biovision (Milpitas, Calif., USA). Briefly, DPP-IV enzyme was diluted with Tris buffer and pipetted 50 μl into glass mini-cells. […] Finally a volume of 25 μl of DPP-IV substrate was added into each tube. The fluorescence generated from hydrolysis of the substrate was read at Ex/Em=360/460 nm using Modulus® single tube multimode reader (Promega, USA). Baseline fluorescence was recorded before incubation (R1) and 20 min after incubation (R2).
The standard DPP-IV inhibitor drug sitagliptin employed as positive control. […] Sigmoidal concentration-response curves for DPP-IV % inhibition versus log concentration were plotted using Graphpad prism software, version 5.00 (GraphPad Software, Inc. La Jolla, Calif., USA).

The chains behind the UniProt entries cited, without tags or fusion partners.
UniProt P27487, whole entry, species assumed: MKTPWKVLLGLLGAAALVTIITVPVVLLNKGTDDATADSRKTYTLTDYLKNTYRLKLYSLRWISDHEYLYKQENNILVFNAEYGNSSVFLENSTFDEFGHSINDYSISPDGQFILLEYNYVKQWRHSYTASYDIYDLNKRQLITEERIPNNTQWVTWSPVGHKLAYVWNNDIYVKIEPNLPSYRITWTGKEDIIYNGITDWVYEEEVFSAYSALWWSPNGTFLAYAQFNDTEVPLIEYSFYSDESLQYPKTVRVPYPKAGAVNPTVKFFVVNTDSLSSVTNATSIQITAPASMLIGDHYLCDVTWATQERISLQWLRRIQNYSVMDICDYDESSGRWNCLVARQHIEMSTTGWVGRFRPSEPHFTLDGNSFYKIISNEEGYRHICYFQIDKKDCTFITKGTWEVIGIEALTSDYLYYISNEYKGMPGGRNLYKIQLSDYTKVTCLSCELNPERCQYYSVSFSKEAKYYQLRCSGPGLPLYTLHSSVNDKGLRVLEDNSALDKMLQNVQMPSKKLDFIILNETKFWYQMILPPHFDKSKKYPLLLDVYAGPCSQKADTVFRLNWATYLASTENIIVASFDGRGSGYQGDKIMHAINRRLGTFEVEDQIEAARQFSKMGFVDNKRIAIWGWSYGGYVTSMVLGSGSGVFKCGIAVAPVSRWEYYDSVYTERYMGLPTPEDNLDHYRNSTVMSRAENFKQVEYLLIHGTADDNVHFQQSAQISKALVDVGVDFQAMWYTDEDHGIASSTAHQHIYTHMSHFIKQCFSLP

Row | Compound | IC50 [nM]
1 | N#Cc1ccc(NC(=O)CNC23CC4CC(CC(C4)C2)C3)cc1 [Compound 118] | < 10
2 | O=C(CNC12CC3CC(CC(C3)C1)C2)Nc1ccc(Cl)cc1 [Compound 112] | < 10
3 | O=C(CNC12CC3CC(CC(C3)C1)C2)Nc1cc(Cl)ccn1 [Compound 117] | < 10

— patent publication US10683267B1, “Antidiabetic compounds” (King Abdulaziz University, priority 2019, dated 2020)
